Test results taken from patent US20200276166A1.
These are yes or no findings as the source states them, for the method shown. Binding seen in cells or lysates may run through a third protein. Some results given as binding are weak or reduced against the parent protein; the word gives no strength.

Chains of the proteins cited; added tags and fusions are not shown. Residues count along the entry.
UniProt P02769, residues 25-607: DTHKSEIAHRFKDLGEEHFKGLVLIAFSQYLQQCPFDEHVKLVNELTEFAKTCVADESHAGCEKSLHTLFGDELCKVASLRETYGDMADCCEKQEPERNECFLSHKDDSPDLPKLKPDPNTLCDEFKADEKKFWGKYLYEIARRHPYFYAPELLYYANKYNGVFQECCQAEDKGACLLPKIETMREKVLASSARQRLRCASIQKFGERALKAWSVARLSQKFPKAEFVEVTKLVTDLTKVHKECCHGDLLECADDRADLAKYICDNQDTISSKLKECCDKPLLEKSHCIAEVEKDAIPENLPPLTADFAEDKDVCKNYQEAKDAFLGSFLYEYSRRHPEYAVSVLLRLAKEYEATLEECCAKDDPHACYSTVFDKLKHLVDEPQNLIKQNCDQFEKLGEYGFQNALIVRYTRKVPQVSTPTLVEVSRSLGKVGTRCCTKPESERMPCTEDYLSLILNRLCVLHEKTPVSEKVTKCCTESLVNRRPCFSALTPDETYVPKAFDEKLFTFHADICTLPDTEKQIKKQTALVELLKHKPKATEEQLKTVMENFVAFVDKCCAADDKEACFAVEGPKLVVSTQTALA

Assays:
TGF-βRII (rat) [1] = target: T1, TGF-βRII (rat) (UniProt P38438); experiment: co-immunoprecipitation from rat cortical lysate with anti-albumin antibody, Western blot for TGF-βRII
T1 sequence (looked up): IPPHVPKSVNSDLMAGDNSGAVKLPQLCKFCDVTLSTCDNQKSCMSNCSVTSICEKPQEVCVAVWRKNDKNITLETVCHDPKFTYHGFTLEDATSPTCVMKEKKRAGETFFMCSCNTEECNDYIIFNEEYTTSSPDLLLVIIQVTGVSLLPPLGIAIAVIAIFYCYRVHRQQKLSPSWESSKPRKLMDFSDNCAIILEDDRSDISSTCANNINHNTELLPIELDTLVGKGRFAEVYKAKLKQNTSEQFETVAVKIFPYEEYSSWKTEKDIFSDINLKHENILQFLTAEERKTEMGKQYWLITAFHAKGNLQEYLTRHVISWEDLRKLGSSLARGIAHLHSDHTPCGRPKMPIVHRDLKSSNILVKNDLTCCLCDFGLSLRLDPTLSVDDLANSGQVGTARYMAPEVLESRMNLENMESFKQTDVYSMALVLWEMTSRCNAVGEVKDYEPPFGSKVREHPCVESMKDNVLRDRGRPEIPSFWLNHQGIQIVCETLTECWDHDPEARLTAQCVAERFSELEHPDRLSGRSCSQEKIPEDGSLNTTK

TGF-βRII (rat) [2] = target: T1, TGF-βRII (rat); experiment: co-immunoprecipitation (restated)

binding (TGF-βRII (rat) [1]): binds | binding (TGF-βRII (rat) [2]): binds
Substance: bovine serum albumin (from UniProt P02769 25-607)
